Measured data: PubChem BioAssay AID686938 (Drosophila RNAi Screening Center, 2013)

Screen: 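Looking for CRAC channel components and the factors controlling them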 (primary screen)
System: Drosophila S2R+ cells
Reagents: long dsRNA against Drosophila genes, about 0.25 µg dsRNA per well, roughly 10,000 cells
Time to read-out: 5 days of knock-down before the calcium assay
Challenge: thapsigargin (SERCA pump blocker) to empty calcium stores; entry signal taken 4 min after adding it
Read-out: 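Per-well fluo-4 fluorescence in two replicates, unnormalised, measured in resting cells and 4 min after store depletion by the SERCA blocker thapsigargin; ratio of the two present in few wells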
Direction: calcium entry signal: higher = stronger calcium signal after store depletion; entry to resting ratio: higher = more calcium entry relative to resting level; resting calcium signal: higher = higher resting calcium signal
Units: calcium entry signal in fluorescence units; resting calcium signal in fluorescence units
Active means: 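Hit if the duplicate-averaged plate z-score for entry over resting signal is under −3; wells with weak total dye signal (Fmax z < −2) or more than 5 off-targets removed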
Meaning of the calls: active = strongly reduced calcium entry; inactive = no strong reduction
The deposit covers about 23,000 reagents; below is an unselected part of those with a known target gene and a result. In the full data, 75 (0.33%) are marked active. 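Raw plate signals without normalisation; calls rest on plate z-scores that were not deposited; ratio present for only 364 wells.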 A plus sign joins genes that one reagent is predicted to hit. No sequences are given here. Not given: the dose of the treatment.

Ktl (Kctd12-like) [DRSC14270] → calcium entry signal, replicate 1: 5.56e7; calcium entry signal, replicate 2: 4.44e7; resting calcium signal, replicate 1: 2.43e7; resting calcium signal, replicate 2: 1.92e7; outcome: inactive
cib (ciboulot) [DRSC18660] → calcium entry signal, replicate 1: 2.69e7; calcium entry signal, replicate 2: 5.07e7; resting calcium signal, replicate 1: 1.36e7; resting calcium signal, replicate 2: 2.70e7; outcome: inactive
Sem1 (Suppressor of exocyst mutations 1) [DRSC02282] → calcium entry signal, replicate 1: 2.35e7; calcium entry signal, replicate 2: 2.46e7; resting calcium signal, replicate 1: 1.44e7; resting calcium signal, replicate 2: 1.47e7; outcome: inactive
Zwilch [DRSC15376] → calcium entry signal, replicate 1: 3.31e7; calcium entry signal, replicate 2: 5.36e7; resting calcium signal, replicate 1: 1.78e7; resting calcium signal, replicate 2: 2.31e7; outcome: inactive
Qsox4 (Quiescin sulfhydryl oxidase 4) [DRSC14224] → calcium entry signal, replicate 1: 4.56e7; calcium entry signal, replicate 2: 4.18e7; resting calcium signal, replicate 1: 2.05e7; resting calcium signal, replicate 2: 1.84e7; outcome: inactive
CG31551 [DRSC12159] → calcium entry signal, replicate 1: 3.46e7; calcium entry signal, replicate 2: 4.22e7; resting calcium signal, replicate 1: 1.62e7; resting calcium signal, replicate 2: 2.16e7; outcome: inactive
CG31551 [DRSC22403] → calcium entry signal, replicate 1: 2.95e7; calcium entry signal, replicate 2: 3.18e7; resting calcium signal, replicate 1: 1.50e7; resting calcium signal, replicate 2: 1.20e7; outcome: inactive
CG13026 [DRSC09906] → calcium entry signal, replicate 1: 3.91e7; calcium entry signal, replicate 2: 5.49e7; resting calcium signal, replicate 1: 1.77e7; resting calcium signal, replicate 2: 1.95e7; outcome: inactive
Cpr65Ay (Cuticular protein 65Ay) [DRSC08796] → calcium entry signal, replicate 1: 4.44e7; calcium entry signal, replicate 2: 3.84e7; resting calcium signal, replicate 1: 2.38e7; resting calcium signal, replicate 2: 1.78e7; outcome: inactive
whd (withered) [DRSC07351] → calcium entry signal, replicate 1: 4.60e7; calcium entry signal, replicate 2: 4.45e7; resting calcium signal, replicate 1: 1.89e7; resting calcium signal, replicate 2: 2.11e7; outcome: inactive
su(sable) (suppressor of sable) [DRSC18839] → calcium entry signal, replicate 1: 2.68e7; calcium entry signal, replicate 2: 4.30e7; entry to resting ratio: 2; resting calcium signal, replicate 1: 1.36e7; resting calcium signal, replicate 2: 1.77e7; outcome: inactive
Sou (Souji) [DRSC04356] → calcium entry signal, replicate 1: 4.91e7; calcium entry signal, replicate 2: 5.27e7; resting calcium signal, replicate 1: 2.15e7; resting calcium signal, replicate 2: 2.16e7; outcome: inactive
Cbp53E (Calbindin 53E) [DRSC07356] → calcium entry signal, replicate 1: 4.20e7; calcium entry signal, replicate 2: 3.40e7; resting calcium signal, replicate 1: 1.98e7; resting calcium signal, replicate 2: 1.74e7; outcome: inactive
CG34187 (retired record) + Trpm [DRSC05543] → calcium entry signal, replicate 1: 3.52e7; calcium entry signal, replicate 2: 5.11e7; resting calcium signal, replicate 1: 1.88e7; resting calcium signal, replicate 2: 2.17e7; outcome: inactive
Cyt-c1 (Cytochrome c1) [DRSC10447] → calcium entry signal, replicate 1: 6.03e7; calcium entry signal, replicate 2: 5.08e7; resting calcium signal, replicate 1: 3.63e7; resting calcium signal, replicate 2: 1.89e7; outcome: inactive
Glyp (Glycogen phosphorylase) [DRSC00752] → calcium entry signal, replicate 1: 4.02e7; calcium entry signal, replicate 2: 2.18e7; resting calcium signal, replicate 1: 1.83e7; resting calcium signal, replicate 2: 1.20e7; outcome: inactive
CG18284 [DRSC02661] → calcium entry signal, replicate 1: 4.81e7; resting calcium signal, replicate 1: 2.18e7; outcome: inactive
CG18284 [DRSC20756] → calcium entry signal, replicate 1: 5.16e7; calcium entry signal, replicate 2: 3.97e7; resting calcium signal, replicate 1: 2.32e7; resting calcium signal, replicate 2: 1.87e7; outcome: inactive
Amacr (Alpha-methylacyl-CoA racemase) [DRSC03198] → calcium entry signal, replicate 1: 2.28e7; resting calcium signal, replicate 1: 1.30e7; outcome: inactive
CG7115 [DRSC02000] → calcium entry signal, replicate 1: 3.16e7; calcium entry signal, replicate 2: 4.30e7; resting calcium signal, replicate 1: 1.43e7; resting calcium signal, replicate 2: 1.80e7; outcome: inactive
CG5323 [DRSC06929] → calcium entry signal, replicate 1: 5.82e7; calcium entry signal, replicate 2: 5.33e7; resting calcium signal, replicate 1: 2.67e7; resting calcium signal, replicate 2: 2.68e7; outcome: inactive
